The target of assay [1] is ApoE4(1-272) (human) (UniProt P02649). In words: western blot of cortical lysate of E4 knock-in mouse; band (about 30 and 60 KDa) said to be consistent with ApoE(1-272) monomer and dimer. (A western blot detects proteins with antibodies after separation by electrophoresis.)
Assay [2] shares this target. In words: immunoprecipitation from cell lysate, western blot with 1F9.
For a further assay, the target named is ApoE3(1-272) (human) (UniProt P02649). Description: western blot of cortical lysate of E3 knock-in mouse; band (about 30 and 60 KDa) said to be consistent with ApoE(1-272) monomer and dimer.

Amino acid sequences for entries named in this document (tags omitted). A change or cut given only in a name is not applied to a line headed by its entry.
UniProt P02649: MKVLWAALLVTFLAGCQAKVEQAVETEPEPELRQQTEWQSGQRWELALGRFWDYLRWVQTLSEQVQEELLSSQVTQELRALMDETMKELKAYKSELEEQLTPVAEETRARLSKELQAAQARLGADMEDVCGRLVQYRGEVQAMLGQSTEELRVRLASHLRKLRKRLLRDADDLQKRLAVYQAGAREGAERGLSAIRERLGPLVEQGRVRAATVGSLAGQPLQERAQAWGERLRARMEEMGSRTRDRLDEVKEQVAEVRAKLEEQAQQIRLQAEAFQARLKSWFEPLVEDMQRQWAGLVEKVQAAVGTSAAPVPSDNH

Results are given in words; binding and its absence hold for the method and conditions named. Some results given as binding are weak or reduced against the parent protein; the word gives no strength.

B1: mouse monoclonal antibody 15G8 (antibody, V domains shown)
VH: EVKLVESGGGLVKPGGSLKLSCAASGFTFSFYAMSWVRQTPEKRLEWVASLSRGGSTYYPDSVKGRFTISRDNARNTLYLQMSSLRSEDTAMFYCAREGATALYAMDYWGQGTSVTVSS
VL: DVLMTQTPLSLPVSLGDQASISCRSSQSIVHSNGNTYLQWYLQKPGQSPKLLIYKVSNRFSGVPDRFSGSGSGTDFTLKISRVEAEDLGIYYCFQGSHVPWTFGGGTKLEIK
notes: Same variable regions as 12C12 and 15E10; also called m15G8; mouse 15G8
B1: the binding result with ApoE4(1-272) (human) [1], with ApoE4(1-272) (human) [2] and with ApoE3(1-272) (human) was “binds” in each case.

B2: mouse monoclonal antibody 12C12 (antibody, V domains shown)
VH: B1 VH
VL: B1 VL
On to B2, for which the binding entry with ApoE4(1-272) (human) [1] and with ApoE3(1-272) (human) was “binds” each time.

B3: mouse monoclonal antibody 15E10 (antibody, V domains shown)
VH: B1 VH
VL: B1 VL
On to B3, for which the binding result in the assay with ApoE4(1-272) (human) [1] and with ApoE3(1-272) (human) was “binds” throughout.

These data come from US20120204275A1 (NEOTOPE BIOSCIENCES, published 2012).
